# Results: the supplement of paper PMC10849652
# Protein sequences, listed by entry. Tags and fused reporters are not part of them. Lines headed by an entry give the natural chain unless they say otherwise; changes in a name come on top.
# UniProt P68036, whole entry, looked up: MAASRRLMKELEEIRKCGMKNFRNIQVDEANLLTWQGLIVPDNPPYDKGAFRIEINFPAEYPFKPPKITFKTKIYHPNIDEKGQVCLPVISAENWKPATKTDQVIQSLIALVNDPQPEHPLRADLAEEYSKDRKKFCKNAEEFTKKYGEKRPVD
# UniProt P43897: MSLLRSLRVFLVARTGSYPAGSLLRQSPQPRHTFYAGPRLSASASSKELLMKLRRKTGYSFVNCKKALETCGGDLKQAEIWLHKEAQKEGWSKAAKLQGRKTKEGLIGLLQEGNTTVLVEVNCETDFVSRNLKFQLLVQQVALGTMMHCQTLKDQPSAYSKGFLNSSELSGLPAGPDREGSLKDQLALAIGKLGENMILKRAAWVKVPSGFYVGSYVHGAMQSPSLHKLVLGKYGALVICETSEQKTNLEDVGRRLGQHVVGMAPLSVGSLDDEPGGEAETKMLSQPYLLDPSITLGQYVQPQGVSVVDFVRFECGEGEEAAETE
# UniProt Q9NV66: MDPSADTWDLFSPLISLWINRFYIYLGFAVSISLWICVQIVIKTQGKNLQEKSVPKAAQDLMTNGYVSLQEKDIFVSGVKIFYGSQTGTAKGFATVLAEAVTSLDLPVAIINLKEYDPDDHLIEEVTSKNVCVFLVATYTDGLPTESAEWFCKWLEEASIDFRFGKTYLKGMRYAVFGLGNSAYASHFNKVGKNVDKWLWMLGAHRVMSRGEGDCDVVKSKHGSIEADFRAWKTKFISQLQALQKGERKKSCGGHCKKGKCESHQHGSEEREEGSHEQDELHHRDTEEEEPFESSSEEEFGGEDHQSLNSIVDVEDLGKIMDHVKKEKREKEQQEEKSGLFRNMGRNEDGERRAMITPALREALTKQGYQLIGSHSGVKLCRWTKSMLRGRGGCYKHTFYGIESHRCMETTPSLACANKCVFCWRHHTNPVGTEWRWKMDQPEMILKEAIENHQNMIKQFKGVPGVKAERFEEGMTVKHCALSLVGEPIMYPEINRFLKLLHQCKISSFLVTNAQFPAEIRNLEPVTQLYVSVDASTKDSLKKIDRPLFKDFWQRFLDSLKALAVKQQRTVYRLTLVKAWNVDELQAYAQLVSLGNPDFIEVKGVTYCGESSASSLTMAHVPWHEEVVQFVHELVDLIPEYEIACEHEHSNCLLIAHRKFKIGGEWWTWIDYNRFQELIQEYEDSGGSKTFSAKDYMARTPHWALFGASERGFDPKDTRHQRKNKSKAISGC
# UniProt Q5T6F2: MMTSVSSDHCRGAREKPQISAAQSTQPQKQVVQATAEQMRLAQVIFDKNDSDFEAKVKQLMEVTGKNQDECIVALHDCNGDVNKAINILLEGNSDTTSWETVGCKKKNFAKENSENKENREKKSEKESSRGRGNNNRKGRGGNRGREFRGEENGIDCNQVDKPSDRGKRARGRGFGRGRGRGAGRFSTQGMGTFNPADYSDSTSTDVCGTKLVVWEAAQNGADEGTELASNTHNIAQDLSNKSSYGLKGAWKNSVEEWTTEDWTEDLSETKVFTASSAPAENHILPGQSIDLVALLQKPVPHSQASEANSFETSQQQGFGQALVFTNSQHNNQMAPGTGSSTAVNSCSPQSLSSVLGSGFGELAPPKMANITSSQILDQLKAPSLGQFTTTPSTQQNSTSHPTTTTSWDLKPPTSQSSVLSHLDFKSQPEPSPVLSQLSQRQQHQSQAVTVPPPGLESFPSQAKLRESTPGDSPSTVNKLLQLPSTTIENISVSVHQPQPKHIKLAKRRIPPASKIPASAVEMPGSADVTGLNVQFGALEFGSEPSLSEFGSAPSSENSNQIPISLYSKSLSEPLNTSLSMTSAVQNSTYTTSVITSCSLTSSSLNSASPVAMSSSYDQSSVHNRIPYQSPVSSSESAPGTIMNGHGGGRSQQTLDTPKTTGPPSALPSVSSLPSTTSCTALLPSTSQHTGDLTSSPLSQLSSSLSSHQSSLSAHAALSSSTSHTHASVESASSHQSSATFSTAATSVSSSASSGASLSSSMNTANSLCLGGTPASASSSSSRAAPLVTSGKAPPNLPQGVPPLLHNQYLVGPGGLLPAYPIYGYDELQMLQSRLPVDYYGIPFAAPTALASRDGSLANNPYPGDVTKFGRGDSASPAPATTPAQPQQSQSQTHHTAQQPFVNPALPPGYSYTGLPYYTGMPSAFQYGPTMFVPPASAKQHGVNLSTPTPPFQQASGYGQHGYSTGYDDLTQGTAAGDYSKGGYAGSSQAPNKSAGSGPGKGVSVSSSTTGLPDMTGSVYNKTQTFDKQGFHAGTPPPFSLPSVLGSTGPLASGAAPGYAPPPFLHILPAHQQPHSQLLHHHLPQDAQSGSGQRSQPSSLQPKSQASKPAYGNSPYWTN
# UniProt O43156, whole entry, looked up: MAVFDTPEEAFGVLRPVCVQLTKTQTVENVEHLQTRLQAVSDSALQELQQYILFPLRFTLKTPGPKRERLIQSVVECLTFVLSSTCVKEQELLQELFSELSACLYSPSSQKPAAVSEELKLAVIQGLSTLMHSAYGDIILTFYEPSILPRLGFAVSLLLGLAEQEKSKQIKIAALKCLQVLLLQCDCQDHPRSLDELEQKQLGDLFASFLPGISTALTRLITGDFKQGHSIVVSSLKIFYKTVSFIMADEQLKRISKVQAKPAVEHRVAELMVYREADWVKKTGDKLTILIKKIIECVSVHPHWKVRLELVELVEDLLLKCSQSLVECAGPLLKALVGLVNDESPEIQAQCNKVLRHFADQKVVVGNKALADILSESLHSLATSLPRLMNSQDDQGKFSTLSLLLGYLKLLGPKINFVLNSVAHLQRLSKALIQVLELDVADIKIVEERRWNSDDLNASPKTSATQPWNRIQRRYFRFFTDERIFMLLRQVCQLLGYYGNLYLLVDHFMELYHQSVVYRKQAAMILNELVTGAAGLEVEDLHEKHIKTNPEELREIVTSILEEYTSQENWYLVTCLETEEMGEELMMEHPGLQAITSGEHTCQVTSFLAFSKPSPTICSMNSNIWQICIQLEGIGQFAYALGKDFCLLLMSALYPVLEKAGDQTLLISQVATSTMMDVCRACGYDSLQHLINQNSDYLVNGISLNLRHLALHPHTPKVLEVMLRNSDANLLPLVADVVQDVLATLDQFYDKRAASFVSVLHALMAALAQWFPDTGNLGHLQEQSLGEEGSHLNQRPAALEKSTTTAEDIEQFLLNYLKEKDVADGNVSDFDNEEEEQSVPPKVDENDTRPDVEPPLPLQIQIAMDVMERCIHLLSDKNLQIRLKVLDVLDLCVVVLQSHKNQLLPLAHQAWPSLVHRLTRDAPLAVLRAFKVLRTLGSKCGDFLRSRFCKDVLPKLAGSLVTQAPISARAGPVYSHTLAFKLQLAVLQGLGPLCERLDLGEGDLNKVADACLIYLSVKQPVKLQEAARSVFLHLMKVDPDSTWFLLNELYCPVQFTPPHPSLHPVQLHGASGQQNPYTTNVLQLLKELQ
# UniProt Q16763: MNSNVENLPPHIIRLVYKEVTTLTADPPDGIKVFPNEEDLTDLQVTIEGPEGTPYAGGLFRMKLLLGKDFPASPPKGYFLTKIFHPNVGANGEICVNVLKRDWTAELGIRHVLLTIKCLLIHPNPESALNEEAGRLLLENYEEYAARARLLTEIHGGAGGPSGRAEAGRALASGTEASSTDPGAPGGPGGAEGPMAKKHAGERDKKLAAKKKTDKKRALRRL
# UniProt Q13885, whole entry, looked up: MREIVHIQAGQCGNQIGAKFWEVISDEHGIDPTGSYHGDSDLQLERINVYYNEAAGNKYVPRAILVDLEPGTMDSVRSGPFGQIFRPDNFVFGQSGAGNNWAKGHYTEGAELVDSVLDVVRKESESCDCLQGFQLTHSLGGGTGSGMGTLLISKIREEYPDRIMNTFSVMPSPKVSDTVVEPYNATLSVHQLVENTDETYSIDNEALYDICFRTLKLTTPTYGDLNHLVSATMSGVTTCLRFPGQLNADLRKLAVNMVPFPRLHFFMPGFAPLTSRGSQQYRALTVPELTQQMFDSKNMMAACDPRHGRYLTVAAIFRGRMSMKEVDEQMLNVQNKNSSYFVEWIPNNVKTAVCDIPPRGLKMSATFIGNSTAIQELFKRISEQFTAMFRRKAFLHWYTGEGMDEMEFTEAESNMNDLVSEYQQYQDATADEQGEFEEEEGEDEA
# UniProt Q9H3M7: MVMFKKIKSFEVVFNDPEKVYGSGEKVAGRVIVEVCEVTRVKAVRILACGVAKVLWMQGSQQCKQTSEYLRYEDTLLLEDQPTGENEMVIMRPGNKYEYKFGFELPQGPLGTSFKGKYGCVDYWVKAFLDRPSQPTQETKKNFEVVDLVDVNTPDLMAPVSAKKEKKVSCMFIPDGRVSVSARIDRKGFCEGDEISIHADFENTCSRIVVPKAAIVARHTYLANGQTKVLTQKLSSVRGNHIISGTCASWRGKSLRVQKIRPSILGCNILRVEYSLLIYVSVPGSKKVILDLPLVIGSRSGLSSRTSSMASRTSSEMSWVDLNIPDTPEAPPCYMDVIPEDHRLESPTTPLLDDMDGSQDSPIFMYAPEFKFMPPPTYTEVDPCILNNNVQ
# UniProt Q9BSJ2, whole entry, looked up: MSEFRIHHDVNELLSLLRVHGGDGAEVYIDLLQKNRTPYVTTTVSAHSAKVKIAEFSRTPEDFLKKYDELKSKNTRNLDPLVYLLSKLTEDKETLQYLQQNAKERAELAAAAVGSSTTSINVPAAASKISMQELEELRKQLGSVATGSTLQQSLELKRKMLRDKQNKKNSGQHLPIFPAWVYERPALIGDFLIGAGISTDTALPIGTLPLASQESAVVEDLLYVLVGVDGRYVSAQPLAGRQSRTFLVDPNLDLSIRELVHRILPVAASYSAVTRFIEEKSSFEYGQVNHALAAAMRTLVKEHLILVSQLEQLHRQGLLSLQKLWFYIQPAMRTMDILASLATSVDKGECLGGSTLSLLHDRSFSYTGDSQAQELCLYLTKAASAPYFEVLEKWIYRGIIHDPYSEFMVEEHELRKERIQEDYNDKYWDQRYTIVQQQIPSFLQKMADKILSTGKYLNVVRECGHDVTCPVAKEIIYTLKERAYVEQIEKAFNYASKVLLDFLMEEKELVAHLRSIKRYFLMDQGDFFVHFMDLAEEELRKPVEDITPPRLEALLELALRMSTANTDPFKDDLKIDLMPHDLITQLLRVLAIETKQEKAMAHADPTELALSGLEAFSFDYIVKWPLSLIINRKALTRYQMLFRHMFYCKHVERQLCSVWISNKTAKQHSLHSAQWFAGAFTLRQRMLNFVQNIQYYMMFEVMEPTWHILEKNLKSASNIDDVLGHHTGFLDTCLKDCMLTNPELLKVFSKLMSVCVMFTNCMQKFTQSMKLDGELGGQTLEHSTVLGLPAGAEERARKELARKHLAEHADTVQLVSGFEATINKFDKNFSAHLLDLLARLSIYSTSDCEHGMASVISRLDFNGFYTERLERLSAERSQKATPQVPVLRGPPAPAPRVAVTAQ
# UniProt P04350, whole entry, looked up: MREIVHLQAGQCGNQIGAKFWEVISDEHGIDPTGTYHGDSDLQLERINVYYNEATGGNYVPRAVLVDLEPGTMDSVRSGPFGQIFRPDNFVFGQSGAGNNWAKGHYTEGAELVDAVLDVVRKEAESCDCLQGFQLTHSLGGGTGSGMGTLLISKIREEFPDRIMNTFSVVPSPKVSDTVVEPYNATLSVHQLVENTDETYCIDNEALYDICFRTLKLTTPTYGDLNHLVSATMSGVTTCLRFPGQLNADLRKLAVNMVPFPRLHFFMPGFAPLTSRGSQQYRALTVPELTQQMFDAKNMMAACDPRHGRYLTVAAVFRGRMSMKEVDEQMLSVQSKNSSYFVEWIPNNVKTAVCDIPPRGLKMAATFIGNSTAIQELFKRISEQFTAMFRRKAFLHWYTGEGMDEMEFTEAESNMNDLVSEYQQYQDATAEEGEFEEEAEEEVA
# UniProt Q99757: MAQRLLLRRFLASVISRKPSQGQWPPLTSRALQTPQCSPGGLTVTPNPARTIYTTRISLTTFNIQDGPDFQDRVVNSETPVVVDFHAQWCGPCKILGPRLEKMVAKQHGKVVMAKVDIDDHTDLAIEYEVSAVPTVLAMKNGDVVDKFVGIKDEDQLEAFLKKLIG
# UniProt Q7Z7E8: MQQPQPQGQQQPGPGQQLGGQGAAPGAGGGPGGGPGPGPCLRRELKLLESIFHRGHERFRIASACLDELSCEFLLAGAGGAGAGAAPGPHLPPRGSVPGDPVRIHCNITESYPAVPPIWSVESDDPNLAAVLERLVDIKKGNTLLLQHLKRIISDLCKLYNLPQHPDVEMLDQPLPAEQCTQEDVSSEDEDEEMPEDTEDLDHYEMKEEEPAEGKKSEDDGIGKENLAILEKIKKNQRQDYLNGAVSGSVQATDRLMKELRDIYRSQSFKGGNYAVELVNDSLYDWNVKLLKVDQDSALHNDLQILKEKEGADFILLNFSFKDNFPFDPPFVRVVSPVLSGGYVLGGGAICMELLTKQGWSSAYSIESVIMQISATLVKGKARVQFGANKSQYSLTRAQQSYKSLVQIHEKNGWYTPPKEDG
# The list shows a part of the results.
# Experiments:
# Assay in all cases: log2 fold change, soluble protein after heating vs DMSO (PISA); higher = thermal stabilisation; K562 cells, 10 uM, 30 min; active = over 0.2 and 3.5 SD of the protein, either way, in both replicates (recomputed)
# [1] = compound: CC1=C(C=C(C=C1)NC(=O)C2=CC(=CC=C2)C(C)(C)C#N)NC3=CC4=C(C=C3)N=CN(C4=O)C
# Outline: (§1)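 Soluble protein was quantified by TMTpro 16plex LC-MS/MS after channel sums were equalised. It was obtained as the supernatant after 21,000xg for 90 min from pooled aliquots of K562 cells (2×10^6 cells/mL, 10 μM compound, 30 min) heated for 3 min across 48°C-58°C and extracted in PBS with 0.5% NP-40 at 4°C. Thermal stability values are relative to control samples and come from duplicates. They are given as log2 fold changes.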
# [2] = compound: CC1=C(C=C(C=C1)NC(=O)C2=CC(=CC=C2)N(C)C)NC(=O)C3=CC=C(C=C3)O
# Outline: as §1
# [3] = compound: CC1=CC=C(C=C1)SC2=C3C=C(SC3=CN=C2)C(=O)N
# Outline: as §1
# [4] = compound: CC1=NC(=CC=C1)C2=C(N=C(N2)C(C)(C)C)C3=CC4=NC=CN=C4C=C3
# Outline: as §1
# Nexturastat A = compound: CCCCN(Cc1ccc(C(=O)NO)cc1)C(=O)Nc1ccccc1 [Nexturastat A]
# Outline: as §1
# vemurafenib = compound: CCCS(=O)(=O)Nc1ccc(F)c(C(=O)c2c[nH]c3ncc(-c4ccc(Cl)cc4)cc23)c1F [vemurafenib]
# Outline: as §1
# [5] = compound: CCCS(=O)(=O)Nc1ccc(F)c(C(=O)c2c[nH]c3ncc(Cl)cc23)c1F
# Outline: as §1
# [6] = compound: CCCc1cc(C)[nH]c(=O)c1CNC(=O)c1cc(-c2ccnc(N3CCN(C)CC3)c2)cc2c1cnn2C(C)C
# Outline: as §1
# givinostat = compound: CCN(CC)Cc1ccc2cc(COC(=O)Nc3ccc(C(=O)NO)cc3)ccc2c1 [givinostat]
# Outline: as §1
# barasertib = compound: CCN(CCCOc1ccc2c(Nc3cc(CC(=O)Nc4cccc(F)c4)[nH]n3)ncnc2c1)CCOP(=O)(O)O [barasertib]
# Outline: as §1
# [7] = compound: CC[C@@H]1C(=O)N(C)c2cnc(Nc3ccc(C(=O)NC4CCN(C)CC4)cc3OC)nc2N1C1CCCC1
# Outline: as §1
# volasertib = compound: CC[C@@H]1C(=O)N(C)c2cnc(Nc3ccc(C(=O)N[C@H]4CC[C@H](N5CCN(CC6CC6)CC5)CC4)cc3OC)nc2N1C(C)C [volasertib]
# Outline: as §1
# [8] = compound: CC[C@H](C)N1C=C(C2=C(C=C(C=C21)C3=CN=C(C=C3)N4CCNCC4)C(=O)NCC5=C(C=C(NC5=O)C)C)C
# Outline: as §1
# epoxomicin = compound: CC[C@H](C)[C@@H](C(=O)N[C@@H]([C@@H](C)O)C(=O)N[C@@H](CC(C)C)C(=O)[C@]1(CO1)C)NC(=O)[C@H]([C@@H](C)CC)N(C)C(=O)C [epoxomicin]
# Outline: as §1
# [9] = compound: CCn1c(C(=O)N(C2CC2)C2CC2)cc2c3c(ncn3C)c(Nc3cc(C)n(C)n3)nc21
# Outline: as §1
# [10] = compound: CCn1cc(-c2ccnc3[nH]c(-c4cccc(CN(C)C)c4)cc23)c(-c2ccc(NC(=O)N(C)C)cc2)n1
# Outline: as §1
# [11] = compound: CN(C)CC(=O)Nc1ccc2[nH]c(=O)c3ccccc3c2c1
# Outline: as §1
# rosiglitazone = compound: CN(CCOC1=CC=C(C=C1)C[C@H]2C(=O)NC(=O)S2)C3=CC=CC=N3 (racemic) [rosiglitazone]
# Outline: as §1
# [12] = compound: CN1C2=C(C3=C1C(=O)N(N=C3)CC4=CC(=CC=C4)N)SC(=C2)S(=O)C
# Outline: as §1
# [13] = compound: CN1CCC(CNc2ccc3ncc(-c4cccc(OC(F)(F)F)c4)n3n2)CC1
# Outline: as §1
Target,log2 fold change [1],log2 fold change [2],log2 fold change [3],log2 fold change [4],log2 fold change (Nexturastat A),log2 fold change (vemurafenib),log2 fold change [5],log2 fold change [6],log2 fold change (givinostat),log2 fold change (barasertib),log2 fold change [7],log2 fold change (volasertib),log2 fold change [8],log2 fold change (epoxomicin),log2 fold change [9],log2 fold change [10],log2 fold change [11],log2 fold change (rosiglitazone),log2 fold change [12],log2 fold change [13]
UBE2L3 isoform 3 (UniProt P68036),inactive: -0.01,inactive: -0.001,inactive: -0.002,inactive: 0.041,inactive: -0.052,inactive: 0,inactive: -0.001,inactive: 0.024,inactive: -0.037,inactive: -0.005,inactive: -0.025,inactive: 0.145,inactive: 0.007,inactive: 0.04,inactive: 0.026,inactive: 0.01,inactive: -0.03,inactive: 0.017,inactive: -0.05,inactive: -0.052
TXNDC5 (UniProt Q8NBS9),inactive: 0.015,inactive: 0.013,inactive: -0.021,inactive: 0.017,inactive: -0.014,inactive: -0.001,inactive: -0.015,inactive: 0.022,inactive: -0.044,inactive: 0.005,inactive: -0.023,inactive: 0.008,inactive: 0.006,inactive: 0.105,inactive: 0.028,inactive: -0.002,inactive: 0.009,inactive: 0,inactive: -0.037,inactive: 0.035
TUBB3 (UniProt Q13509),inactive: -0.025,inactive: -0.012,inactive: 0.011,inactive: 0.076,inactive: -0.021,inactive: 0.011,inactive: 0.018,inactive: 0.028,inactive: -0.042,inactive: -0.002,inactive: -0.032,inactive: 0.045,inactive: -0.001,inactive: 0.042,inactive: -0.009,inactive: -0.122,inactive: 0.003,inactive: -0.007,inactive: -0.073,inactive: -0.128
TSFM (UniProt P43897),inactive: 0.253,inactive: -0.167,inactive: 0.021,inactive: 0.11,inactive: -0.057,inactive: 0.08,inactive: 0.034,inactive: 0.181,inactive: 0.041,inactive: 0.075,inactive: -0.003,inactive: -0.092,inactive: 0.046,inactive: 0.212,,inactive: 0.074,inactive: 0.081,,inactive: -0.041,inactive: -0.056
UBAP1 isoform 4 (UniProt Q9NZ09),inactive: 0.082,inactive: -0.002,inactive: 0.135,inactive: -0.015,inactive: -0.049,inactive: 0.005,inactive: 0.159,inactive: 0.018,inactive: 0.13,inactive: 0.033,inactive: -0.012,active: -0.545,inactive: 0,inactive: 0.092,,inactive: 0.006,inactive: -0.034,,inactive: 0.023,inactive: -0.089
TYW1 (UniProt Q9NV66),inactive: 0.027,inactive: -0.017,inactive: 0.023,inactive: 0.074,inactive: -0.08,inactive: 0.025,inactive: 0.084,inactive: 0.069,inactive: -0.025,inactive: 0.045,inactive: -0.02,active: -0.341,inactive: 0.052,inactive: 0.03,,inactive: -0.002,inactive: 0.031,,inactive: 0.014,inactive: 0.088
UBE2E3 (UniProt Q969T4),inactive: 0.028,inactive: -0.059,inactive: 0.053,inactive: 0.08,inactive: -0.098,inactive: -0.013,inactive: 0.08,inactive: 0.022,inactive: 0.116,inactive: 0.013,inactive: -0.124,active: -0.377,inactive: -0.008,inactive: -0.052,,inactive: -0.11,inactive: 0.022,,inactive: -0.005,inactive: -0.24
UBAP2 (UniProt Q5T6F2),inactive: -0.046,inactive: 0.009,inactive: 0.01,inactive: 0.013,inactive: -0.045,inactive: -0.033,inactive: -0.014,inactive: -0.027,inactive: 0.001,inactive: 0.001,inactive: 0,inactive: 0.016,inactive: -0.033,inactive: 0.021,inactive: 0.009,inactive: 0.028,inactive: 0.001,inactive: -0.005,inactive: -0.039,inactive: -0.021
TUBAL3 (UniProt A6NHL2),inactive: 0.152,inactive: -0.062,inactive: 0.005,inactive: 0.094,inactive: -0.106,inactive: 0.121,inactive: -0.033,inactive: -0.207,inactive: 0.006,inactive: -0.028,inactive: 0.144,inactive: -0.497,inactive: -0.052,inactive: -0.11,,inactive: -0.013,inactive: -0.061,,inactive: 0.03,inactive: -0.067
TTI1 (UniProt O43156),inactive: 0.147,inactive: -0.027,inactive: 0.086,inactive: -0.026,inactive: 0.02,inactive: 0.082,inactive: 0.095,inactive: -0.016,inactive: 0.135,inactive: 0.068,inactive: -0.208,active: -0.431,inactive: 0.08,inactive: -0.024,,inactive: -0.038,inactive: 0.048,,inactive: 0.134,inactive: -0.134
UBE2S (UniProt Q16763),inactive: 0.024,inactive: -0.015,inactive: 0.004,inactive: 0.009,inactive: 0.057,inactive: 0.013,inactive: 0.049,inactive: -0.007,inactive: 0.044,inactive: 0.03,inactive: -0.025,active: -0.214,inactive: 0.005,inactive: 0.195,,inactive: 0.015,inactive: 0.048,,inactive: -0.048,inactive: 0.024
TUBB2A (UniProt Q13885),inactive: 0.024,inactive: 0.021,inactive: 0.024,inactive: 0.029,inactive: -0.048,inactive: -0.067,inactive: -0.009,inactive: -0.027,inactive: -0.038,inactive: 0.001,inactive: -0.025,inactive: 0.065,inactive: -0.015,inactive: 0.059,inactive: -0.009,inactive: -0.067,inactive: -0.054,inactive: 0.011,inactive: -0.046,inactive: -0.141
TXNIP (UniProt Q9H3M7),inactive: -0.04,inactive: 0.003,inactive: -0.115,inactive: 0.034,inactive: 0.177,inactive: -0.005,inactive: -0.079,inactive: 0.001,inactive: -0.06,inactive: 0.033,inactive: 0.112,inactive: 0.021,inactive: 0.053,inactive: 0.054,,inactive: -0.066,inactive: -0.026,,inactive: -0.07,active: -0.793
TUBGCP2 isoform 4 (UniProt Q9BSJ2),inactive: 0.024,inactive: -0.044,inactive: 0.003,inactive: -0.06,inactive: 0.242,inactive: -0.033,inactive: -0.025,inactive: 0.155,inactive: 0.202,inactive: 0.176,inactive: 0,inactive: -0.138,inactive: 0.272,inactive: 0.039,inactive: -0.088,inactive: -0.008,inactive: -0.005,inactive: -0.025,inactive: 0.153,inactive: -0.114
TUBB4A (UniProt P04350),inactive: 0.035,inactive: -0.015,inactive: 0.046,inactive: 0.175,inactive: 0.056,inactive: 0.04,inactive: -0.059,inactive: 0.172,inactive: -0.041,inactive: -0.03,inactive: 0.06,inactive: 0.087,inactive: -0.076,inactive: 0.351,inactive: 0.035,,inactive: -0.034,inactive: -0.071,inactive: 0.008,
TXN2 (UniProt Q99757),inactive: -0.05,inactive: -0.018,inactive: -0.009,inactive: 0.036,inactive: 0.093,inactive: 0.006,inactive: -0.048,inactive: 0.095,inactive: -0.046,inactive: 0.009,inactive: -0.037,inactive: 0.051,inactive: -0.029,inactive: 0.082,,inactive: -0.089,inactive: -0.096,,inactive: 0.03,inactive: 0.083
UBE2Q1 (UniProt Q7Z7E8),inactive: 0.093,inactive: -0.041,inactive: -0.003,inactive: -0.037,inactive: 0.008,inactive: 0.011,inactive: 0.114,inactive: -0.031,inactive: 0.022,inactive: 0.068,inactive: -0.087,active: -0.295,inactive: 0.015,inactive: -0.042,,inactive: -0.048,inactive: 0.027,,inactive: -0.007,inactive: -0.212

# Three entries from above, reformatted:
Target	log2 fold change [1]	log2 fold change [2]	log2 fold change [3]	log2 fold change [4]	log2 fold change (Nexturastat A)	log2 fold change (vemurafenib)	log2 fold change [5]	log2 fold change [6]	log2 fold change (givinostat)	log2 fold change (barasertib)	log2 fold change [7]	log2 fold change (volasertib)	log2 fold change [8]	log2 fold change (epoxomicin)	log2 fold change [9]	log2 fold change [10]	log2 fold change [11]	log2 fold change (rosiglitazone)	log2 fold change [12]	log2 fold change [13]
TUBB2A (UniProt Q13885)	inactive: 0.024	inactive: 0.021	inactive: 0.024	inactive: 0.029	inactive: -0.048	inactive: -0.067	inactive: -0.009	inactive: -0.027	inactive: -0.038	inactive: 0.001	inactive: -0.025	inactive: 0.065	inactive: -0.015	inactive: 0.059	inactive: -0.009	inactive: -0.067	inactive: -0.054	inactive: 0.011	inactive: -0.046	inactive: -0.141
TXNIP (UniProt Q9H3M7)	inactive: -0.04	inactive: 0.003	inactive: -0.115	inactive: 0.034	inactive: 0.177	inactive: -0.005	inactive: -0.079	inactive: 0.001	inactive: -0.06	inactive: 0.033	inactive: 0.112	inactive: 0.021	inactive: 0.053	inactive: 0.054		inactive: -0.066	inactive: -0.026		inactive: -0.07	active: -0.793
TUBGCP2 isoform 4 (UniProt Q9BSJ2)	inactive: 0.024	inactive: -0.044	inactive: 0.003	inactive: -0.06	inactive: 0.242	inactive: -0.033	inactive: -0.025	inactive: 0.155	inactive: 0.202	inactive: 0.176	inactive: 0	inactive: -0.138	inactive: 0.272	inactive: 0.039	inactive: -0.088	inactive: -0.008	inactive: -0.005	inactive: -0.025	inactive: 0.153	inactive: -0.114
